Test results taken from PMC10399982.
Results are given in words; binding and its absence hold for the method and conditions named. Binding seen in cells or lysates may run through a third protein. Some binding calls cover weakened binding; strength is not graded here. Where a sequence is shown, tags or fusion partners need not be part of it.

Target: T1, G-protein-coupled AprA receptor GrlH (Dictyostelium discoideum (endogenous in Ax2-derived cells)) (UniProt Q54SH8)
T1 sequence: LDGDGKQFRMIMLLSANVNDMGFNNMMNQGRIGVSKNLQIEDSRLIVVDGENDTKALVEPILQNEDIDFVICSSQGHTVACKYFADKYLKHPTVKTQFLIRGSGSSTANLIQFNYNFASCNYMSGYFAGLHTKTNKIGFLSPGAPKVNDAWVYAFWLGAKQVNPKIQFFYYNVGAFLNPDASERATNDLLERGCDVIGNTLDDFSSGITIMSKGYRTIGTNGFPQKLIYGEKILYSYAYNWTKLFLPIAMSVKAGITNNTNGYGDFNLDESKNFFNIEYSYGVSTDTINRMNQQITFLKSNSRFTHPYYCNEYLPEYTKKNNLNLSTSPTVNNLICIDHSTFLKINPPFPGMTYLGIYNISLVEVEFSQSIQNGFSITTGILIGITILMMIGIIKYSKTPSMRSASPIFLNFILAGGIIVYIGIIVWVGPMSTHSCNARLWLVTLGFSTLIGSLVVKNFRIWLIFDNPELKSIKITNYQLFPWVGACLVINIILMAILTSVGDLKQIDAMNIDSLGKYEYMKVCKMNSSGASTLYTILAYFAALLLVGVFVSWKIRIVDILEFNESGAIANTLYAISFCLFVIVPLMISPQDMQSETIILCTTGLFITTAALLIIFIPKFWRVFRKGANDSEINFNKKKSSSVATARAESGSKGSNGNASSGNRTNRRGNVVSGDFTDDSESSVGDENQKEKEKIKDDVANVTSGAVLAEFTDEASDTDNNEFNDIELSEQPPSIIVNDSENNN
Assay: co-sedimentation; adherent cells in HL5 incubated with 300 ng/ml rAprA, lysed mechanically, centrifuged at 14,000 g for 1 h at 4°C into pellet (contains plasma membranes) and supernatant; western blot for Myc; grlH− cells as comparison; only the binder purified

B1: Myc-tagged recombinant AprA (autocrine proliferation repressor protein A) (ligand, UniProt Q5XM24 19-494)
chain: TPLDDYVNAPDDTYKWTLNNTIEYETFTGYILELTSQTWMAEKSDWPVWKHWVSICVPKGVTTTTTFIYVDGGSNDNWKVPGSMDQTIEIVCLSSGSVSVGLTQIPNQPIIFNNDGVQRFEDDLVAYTWRQFLGNTSEPLWLARLPMTKAVVKCMDAVQEFGKTIGYNSENFVIAGASKRGWTTWLAGVVDPRIIAIVPIVMPILNMIPNMGHQFYAYGEWSFALNDYTGQGVMDYLNGPQMVELAAIVDPFSYRDRYTMPIYAIASSDDEFFLPDSPQFFWNNLTATPEKHLRIVPNAEHSLMGHQIDIILSIVTFVRLLITNQPRPTFTWDITYSEDLNSGTIVLTVPEGGIIPYKVKVWTAVTESTTRRDFRIITCMDITKCIQFIIWDPSDITPTSTGVYSITLSKPDAGWRAFFLEAEYLYAKNSIDDEYTLKFTSEVAIVPNTLPFGSCSEYNACGDGSQGDSASSTATL
B1 was tested, and the binding was “binds”.
